Counter-ions that a name gives are not always drawn. The list shows a part of the results. The data scatter; read single values as rough.
System: Peyronie's disease tunica albuginea primary fibroblasts
Assay: inhibition of TGF-beta1-induced alpha-SMA expression (myofibroblast transformation), relative to TGF-beta1-only and untreated controls; higher = stronger inhibition of myofibroblast transformation
Conditions: 10 µM; TGF-beta1 10 ng/mL; 72 h

SMILES | inhibition of TGF-beta1-induced alpha-SMA expression [%]
OC(c1ccccc1)(c1ccccc1)C12CC[N+](CCOCc3ccccc3)(CC1)CC2 [Umeclidinium bromide] | 13.3
CC1(C)[C@H](C(=O)O)N2C(=O)C[C@H]2S1(=O)=O [Sulbactam] | 18.3
CC1(C)[C@H](C(=O)O)N2C(=O)C[C@H]2S1(=O)=O [Sulbactam sodium] | 13.6
Cc1ncc(CO)c(CO)c1O [Pyridoxine] | -3.56
Cc1ncc(CO)c(CO)c1O [Pyridoxine HCl] | 56.6
Cc1c(C(=O)NN2CCCCC2)nn(-c2ccc(Cl)cc2Cl)c1-c1ccc(Cl)cc1 [Rimonabant] | > 100
COc1nc2ccc(Br)cc2cc1[C@@H](c1ccccc1)[C@@](O)(CCN(C)C)c1cccc2ccccc12 [Bedaquiline fumarate] | 16.7
COc1nc2ccc(Br)cc2cc1[C@@H](c1ccccc1)[C@@](O)(CCN(C)C)c1cccc2ccccc12 [Bedaquiline] | 21
COc1cc2c(cc1OC)CC(=O)N(CCCN(C)C[C@H]1Cc3cc(OC)c(OC)cc31)CC2 [Ivabradine HCl] | 5.09
C[C@H]1c2cccc(O)c2C(=O)C2=C(O)[C@]3(O)C(=O)C(C(N)=O)=C(O)[C@@H](N(C)C)[C@@H]3[C@@H](O)[C@@H]21 [Doxycycline] | 20.3
C[C@H]1c2cccc(O)c2C(=O)C2=C(O)[C@]3(O)C(=O)C(C(N)=O)=C(O)[C@@H](N(C)C)[C@@H]3[C@@H](O)[C@@H]21 [Doxycycline Hyclate] | 14.9
Clc1ccc(C(Cn2ccnc2)OCc2ccsc2Cl)c(Cl)c1 (centres undefined) [Tioconazole] | 47.5
C[C@](N)(Cc1ccc(O)c(O)c1)C(=O)O [Methyldopa] | 1.63
NC(=O)CCC(N)C(=O)O (racemic) [DL-Glutamine] | -7.21
CCOC(=O)O[C@]1(C(=O)OCCl)CC[C@H]2[C@@H]3CCC4=CC(=O)C=C[C@]4(C)[C@H]3[C@@H](O)C[C@@]21C [Loteprednol etabonate] | 46.1
CCc1cc2c(cc1N1CCC(N3CCOCC3)CC1)C(C)(C)c1[nH]c3cc(C#N)ccc3c1C2=O [Alectinib hydrochloride] | -2.14
O=C(O)C(=O)O.[NH-][C@@H]1CCCC[C@H]1[NH-].[Pt+2] [Oxaliplatin] | 25.1
CC(C)C(=O)Oc1ccc(CO)cc1[C@H](CCN(C(C)C)C(C)C)c1ccccc1 [Fesoterodine Fumarate] | 0.0929
Cc1ccc(NC(=O)c2ccc(CN3CCN(C)CC3)cc2)cc1Nc1nccc(-c2cccnc2)n1 [Imatinib Mesylate (STI571)] | 21.9
Cc1ccc(NC(=O)c2ccc(CN3CCN(C)CC3)cc2)cc1Nc1nccc(-c2cccnc2)n1 [Imatinib (STI571)] | 35.8
O=C(O)c1cn(C2CC2)c2cc(N3CCNCC3)c(F)cc2c1=O [Ciprofloxacin hydrochloride hydrate] | 8.5
CCOc1nc2cccc(C(=O)OCc3oc(=O)oc3C)c2n1Cc1ccc(-c2ccccc2-c2noc(=O)[nH]2)cc1 [Azilsartan Medoxomil] | 13.2
C#CCN[C@@H]1CCc2ccccc21 [Rasagiline Mesylate] | 11.2

SMILES | inhibition of TGF-beta1-induced alpha-SMA expression [%]
C/C(=C\c1csc(C)n1)[C@@H]1C[C@@H]2O[C@]2(C)CCC[C@H](C)[C@H](O)[C@@H](C)C(=O)C(C)(C)[C@@H](O)CC(=O)N1 | 84.9
CC(C)(OCc1nn(Cc2ccccc2)c2ccccc12)C(=O)O [Bindarit] | 4.15
COc1cc(C(=O)NCc2ccc(OCCN(C)C)cc2)cc(OC)c1OC [Tribenzagan Hydrochloride] | 26.7
CCCN1CCCC[C@H]1C(=O)Nc1c(C)cccc1C [Ropivacaine] | 3.22
CCCN1CCCC[C@H]1C(=O)Nc1c(C)cccc1C [Ropivacaine HCl] | 27.6
CCN(C(=O)c1c(O)c2c(Cl)cccc2n(C)c1=O)c1ccccc1 [Laquinimod] | 7.45
CN1CC(=O)N2[C@H](c3ccc4c(c3)OCO4)c3[nH]c4ccccc4c3C[C@@H]2C1=O [Tadalafil] | 15
CC(C)NCC(O)COc1ccc(CCOCC2CC2)cc1 (centres undefined) [Betaxolol HCl] | 18.2
CC(C)NCC(O)COc1ccc(CCOCC2CC2)cc1 (centres undefined) [Betaxolol] | 3.3
CCc1nc(N)nc(N)c1-c1ccc(Cl)cc1 [Pyrimethamine] | 17.6
CC(=O)[C@@]1(O)CC[C@H]2[C@@H]3C[C@H](C)C4=CC(=O)C=C[C@]4(C)[C@@]3(F)[C@@H](O)C[C@@]21C [Fluorometholone] | 78.2
CCN(CC)CCNC(=O)c1cc(Cl)c(N)cc1OC [Metoclopramide HCl] | 13.5
CCOc1ccc2ccccc2c1C(=O)N[C@@H]1C(=O)N2[C@@H]1SC(C)(C)[C@@H]2C(=O)O [Nafcillin Sodium] | -3.27
CC1=NN(c2ccccc2)C(=O)C1 [Edaravone] | 19.4
CCC[C@@H]1C[C@@H](C(=O)N[C@@H]([C@H]2O[C@H](SC)[C@H](O)[C@@H](O)[C@H]2O)[C@H](C)Cl)N(C)C1 [Clindamycin] | -9.76
CCC[C@@H]1C[C@@H](C(=O)N[C@@H]([C@H]2O[C@H](SC)[C@H](O)[C@@H](O)[C@H]2O)[C@H](C)Cl)N(C)C1 [Clindamycin HCl] | 13.8
O=C(O)CCNC(=O)c1ccccc1 [Betamipron] | -12.6
O=C(N[C@H](CO)[C@H](O)c1ccc([N+](=O)[O-])cc1)C(Cl)Cl [Chloramphenicol] | 7.32
C=C1/C(=C\C=C2/CCC[C@]3(C)[C@@H]([C@H](C)CCCC(C)C)CC[C@@H]23)C[C@@H](O)C[C@@H]1O [Alfacalcidol] | -39.7
CN(C)CCC=C1c2ccccc2COc2ccccc21 [Doxepin HCl] | 33.3
CN1CCC[C@@H]1Cc1c[nH]c2ccc(CCS(=O)(=O)c3ccccc3)cc12 [Eletriptan HBr] | 23.2
CC(C)[N+](C)(CCOC(=O)C1c2ccccc2Oc2ccccc21)C(C)C [Propantheline bromide] | 11.9
COc1ccccc1Oc1c(NS(=O)(=O)c2ccc(C(C)(C)C)cc2)nc(-c2ncccn2)nc1OCCO [Bosentan Hydrate] | 16.7

Pulled one by one from the list above:
SMILES | inhibition of TGF-beta1-induced alpha-SMA expression [%]
CC(C)NCC(O)COc1ccc(CCOCC2CC2)cc1 (centres undefined) [Betaxolol HCl] | 18.2
CCc1cc2c(cc1N1CCC(N3CCOCC3)CC1)C(C)(C)c1[nH]c3cc(C#N)ccc3c1C2=O [Alectinib hydrochloride] | -2.14
CC(C)[N+](C)(CCOC(=O)C1c2ccccc2Oc2ccccc21)C(C)C [Propantheline bromide] | 11.9

Following part.

SMILES | inhibition of TGF-beta1-induced alpha-SMA expression [%]
COc1cc2c(Oc3ccc(NC(=O)C4(C(=O)Nc5ccc(F)cc5)CC4)cc3F)ccnc2cc1OCCCN1CCOCC1 | > 100
NS(=O)(=O)c1cc2c(cc1Cl)NC(C(Cl)Cl)NS2(=O)=O (centres undefined) [Trichlormethiazide] | 30.4
CN[C@@H]1[C@H](O)[C@H](NC)[C@H]2O[C@@]3(O)C(=O)C[C@@H](C)O[C@H]3O[C@@H]2[C@H]1O [Spectinomycin 2HCl] | 29.7
Cc1onc(-c2ccccc2Cl)c1C(=O)N[C@@H]1C(=O)N2[C@@H]1SC(C)(C)[C@@H]2C(=O)O [Cloxacillin Sodium] | 16.5
C#Cc1cccc(Nc2ncnc3cc(OCCOC)c(OCCOC)cc23)c1 [Erlotinib] | 3.37
C#Cc1cccc(Nc2ncnc3cc(OCCOC)c(OCCOC)cc23)c1 [Erlotinib HCl (OSI-744)] | -35.1
CCN(CC)CCOC(=O)c1ccc(N)cc1Cl [Chloroprocaine HCl] | -7.72
C[C@@H]1NC(=O)[C@@H](N)CNC(=O)[C@H](C2CCNC(=N)N2)NC(=O)/C(=C/NC(N)=O)NC(=O)[C@H](CNC(=O)CC(N)CCCN)NC1=O.N=C1NCC[C@H]([C@@H]2NC(=O)/C(=C/NC(N)=O)NC(=O)[C@H](CNC(=O)C[C@@H](N)CCCN)NC(=O)[C@H](CO)NC(=O)[C@@H](N)CNC2=O)N1 [Capreomycin Sulfate] | 15.3
CC12CCC(CC1=O)C2(C)C (stereo not drawn) [(+)-Camphor] | 0.0607
Cc1c(-c2ccccc2)oc2c(C(=O)OCCN3CCCCC3)cccc2c1=O [Flavoxate HCl] | 26.6
NCCCC(=O)O [4-Aminobutyric acid] | 11.9
CCCCCCOC(=O)NC(=N)c1ccc(NCc2nc3cc(C(=O)N(CCC(=O)OCC)c4ccccn4)ccc3n2C)cc1 [Dabigatran Etexilate] | -9.63
COc1ccc(O)cc1 [Mequinol] | 20.4
CC(C(=O)O)c1ccc2c(c1)[nH]c1ccc(Cl)cc12 (centres undefined) [Carprofen] | 19
CO/N=C(\C(=O)N[C@@H]1C(=O)N2C(C(=O)O)=C(CSc3nnnn3C)CS[C@H]12)c1csc(N)n1 [Cefmenoxime hydrochloride] | 9.39
Cc1ccccc1C(=O)Nc1ccc(C(=O)N2CCCC(O)c3cc(Cl)ccc32)c(C)c1 (centres undefined) [Tolvaptan] | 37
CC(=O)C1C(=O)C=C(C)OC1=O (centres undefined) [Dehydroacetic acid] | -27.4
Nc1nc2[nH]cnc2c(=S)[nH]1 [Thioguanine] | 2.66
CC(C)c1cc2c(cc1S(=O)(=O)O)[C@@]1(C)CCC[C@@](C)(C(=O)O)[C@@H]1CC2 [Ecabet sodium] | 14.1
CN(C)C(=O)C(CCN1CCC(O)(c2ccc(Cl)cc2)CC1)(c1ccccc1)c1ccccc1 [Loperamide HCl] | 57.4
Cc1c(OCC(F)(F)F)ccnc1C[S@@+]([O-])c1nc2ccccc2[nH]1 [Dexlansoprazole] | -27.4
CC[C@H]1OC(=O)[C@H](C)[C@@H](O[C@H]2C[C@@](C)(OC)[C@@H](O)[C@H](C)O2)[C@H](C)[C@@H](O[C@@H]2O[C@H](C)C[C@H](N(C)C)[C@H]2O)[C@](C)(O)C[C@@H](C)C(=O)[C@H](C)[C@H]2OC(=O)O[C@@]21C [Erythromycin Cyclocarbonate] | 31.4
C[C@H](CCC(=O)O)[C@H]1CC[C@H]2[C@@H]3[C@H](O)C[C@@H]4C[C@H](O)CC[C@]4(C)[C@H]3C[C@H](O)[C@]12C [Cholic acid] | 4.57

— the supplement of paper PMC9744312
